Assay results: US20060058253

Protein sequences, listed by entry. Tags and fused reporters are not part of them. Residues count along the entry.
UniProt P09651, 1-196: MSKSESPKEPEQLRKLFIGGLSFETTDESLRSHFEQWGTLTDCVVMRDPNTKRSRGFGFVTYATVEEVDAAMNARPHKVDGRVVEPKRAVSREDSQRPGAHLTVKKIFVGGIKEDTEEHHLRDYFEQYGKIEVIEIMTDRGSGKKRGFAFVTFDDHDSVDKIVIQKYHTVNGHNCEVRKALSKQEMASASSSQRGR

Biological target: UP1 (shortened hnRNP A1), GST fusion (UniProt P09651)
Assay: EMSA
Conditions: purified recombinant protein, protein details: GST

Sequence: GATCACTTGTGTCAACUACCACCGCCAAAGCCGCCU [C5-M4CT]
- binding result: no binding

Sequence: TTTTTGATAGGGAAATUACCACCGCCAAAGCCGCCU [C5-M4A1]
- binding result (5' DNA tail, RNA complementary part (2'-OMe not stated for this oligo), second best after C5-M4A1W): binds

Construct, isoform or probe ends are uncertain for at least one entry. A negative result means that nothing was seen under these conditions.
